Measured values: article PMC12092005
Results are given in words; binding and its absence hold for the method and conditions named. In cells and extracts the contact can be indirect. A yes stands for co-enrichment or nearness to the bait. Other partners may have been found.

Chains of the proteins cited; added tags and fusions are not shown. Lines headed by an entry give the natural chain unless they say otherwise; changes in a name come on top.
UniProt A0A509AQ22: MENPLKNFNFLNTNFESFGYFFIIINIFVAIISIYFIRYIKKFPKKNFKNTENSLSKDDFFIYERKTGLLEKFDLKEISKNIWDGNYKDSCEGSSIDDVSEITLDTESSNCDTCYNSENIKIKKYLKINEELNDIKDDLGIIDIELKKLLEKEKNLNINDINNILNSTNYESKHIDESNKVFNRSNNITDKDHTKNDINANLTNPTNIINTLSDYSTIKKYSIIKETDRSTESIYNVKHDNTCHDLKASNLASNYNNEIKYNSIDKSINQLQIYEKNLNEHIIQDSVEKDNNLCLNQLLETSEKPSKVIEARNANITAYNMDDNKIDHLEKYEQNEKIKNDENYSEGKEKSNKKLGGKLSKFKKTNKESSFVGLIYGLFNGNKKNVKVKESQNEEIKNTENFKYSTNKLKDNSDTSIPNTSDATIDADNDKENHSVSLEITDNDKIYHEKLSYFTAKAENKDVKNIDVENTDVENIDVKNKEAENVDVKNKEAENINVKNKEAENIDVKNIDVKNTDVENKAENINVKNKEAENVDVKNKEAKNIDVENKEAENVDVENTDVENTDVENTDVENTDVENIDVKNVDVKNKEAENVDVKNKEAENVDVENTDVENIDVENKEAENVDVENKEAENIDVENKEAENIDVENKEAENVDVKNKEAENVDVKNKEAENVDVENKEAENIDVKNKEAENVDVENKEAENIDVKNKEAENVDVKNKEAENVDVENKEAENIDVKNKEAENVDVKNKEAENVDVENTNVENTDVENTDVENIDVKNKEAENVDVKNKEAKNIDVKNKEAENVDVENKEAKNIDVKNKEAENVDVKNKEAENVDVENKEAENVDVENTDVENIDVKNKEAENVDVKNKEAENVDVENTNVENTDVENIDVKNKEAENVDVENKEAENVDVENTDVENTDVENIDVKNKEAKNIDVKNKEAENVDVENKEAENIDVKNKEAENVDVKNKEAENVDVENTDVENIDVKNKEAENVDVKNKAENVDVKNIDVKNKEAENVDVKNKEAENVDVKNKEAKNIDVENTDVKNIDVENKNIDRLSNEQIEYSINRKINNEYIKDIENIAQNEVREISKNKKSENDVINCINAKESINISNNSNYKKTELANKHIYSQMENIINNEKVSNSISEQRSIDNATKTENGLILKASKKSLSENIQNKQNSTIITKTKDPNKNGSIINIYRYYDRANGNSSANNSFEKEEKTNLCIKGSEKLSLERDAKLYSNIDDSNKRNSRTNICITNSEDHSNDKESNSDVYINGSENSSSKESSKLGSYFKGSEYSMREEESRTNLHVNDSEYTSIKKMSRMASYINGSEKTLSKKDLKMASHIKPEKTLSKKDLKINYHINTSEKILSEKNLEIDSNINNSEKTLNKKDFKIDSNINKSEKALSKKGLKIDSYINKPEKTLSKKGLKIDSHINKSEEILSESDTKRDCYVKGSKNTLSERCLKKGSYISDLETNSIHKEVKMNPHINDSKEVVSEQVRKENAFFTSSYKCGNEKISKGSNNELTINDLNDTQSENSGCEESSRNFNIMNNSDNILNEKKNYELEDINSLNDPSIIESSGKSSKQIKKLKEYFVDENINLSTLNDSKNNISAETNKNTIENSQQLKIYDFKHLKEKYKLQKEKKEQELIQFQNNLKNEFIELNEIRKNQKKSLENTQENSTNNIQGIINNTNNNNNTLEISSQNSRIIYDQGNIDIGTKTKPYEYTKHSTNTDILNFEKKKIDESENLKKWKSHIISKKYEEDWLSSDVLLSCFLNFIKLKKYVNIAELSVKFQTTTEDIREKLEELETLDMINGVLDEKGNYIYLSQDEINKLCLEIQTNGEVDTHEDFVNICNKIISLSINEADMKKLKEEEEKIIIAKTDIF

Biological target: SUN1-GFP (PbSUN1 with a C-terminal GFP tag) (P. berghei)
Assay: affinity purification with mass spectrometry; GFP-Trap_A beads (2 hr, 4°C) on lysates of purified gametocytes of SUN1-GFP or ALLAN-GFP parasites activated for 6 min (results: 6-8 min), cross-linked with 1% formaldehyde for 10 min before lysis; bound proteins digested with trypsin, LC-MS/MS; WT-GFP gametocytes as control; duplicates

binding: binds
Substance: DDRGK-domain containing UFM1 E3 ligase (from UniProt A0A509AQ22)
